Measurements as given in patent publication US10166142B2, “Small molecule delivery with implantable therapeutic device” (ForSight Vision4, Inc., priority 2011, dated 2019).
Counter-ions that a name gives are not always drawn.

Assay: Release of dorzolamide suspension from therapeutic devices, Example A
Details: 100 mg/mL suspension, measured for 120 days, all devices

In the case of CCN[C@H]1C[C@H](C)S(=O)(=O)c2sc(S(N)(=O)=O)cc21 [Dorzolamide, dorzolamide Hydrochloride], the “constant drug release rate” value is reported as 17 µg/day.
